From paper PMC9971319
These are yes or no findings as the source states them, for the method shown. In cells and extracts the contact can be indirect. Some results given as binding are weak or reduced against the parent protein; the word gives no strength. For part of these data: Where a sequence is shown, tags or fusion partners need not be part of it.

Amino acid sequences for entries named in this document (tags omitted).
UniProt Q8BKJ9: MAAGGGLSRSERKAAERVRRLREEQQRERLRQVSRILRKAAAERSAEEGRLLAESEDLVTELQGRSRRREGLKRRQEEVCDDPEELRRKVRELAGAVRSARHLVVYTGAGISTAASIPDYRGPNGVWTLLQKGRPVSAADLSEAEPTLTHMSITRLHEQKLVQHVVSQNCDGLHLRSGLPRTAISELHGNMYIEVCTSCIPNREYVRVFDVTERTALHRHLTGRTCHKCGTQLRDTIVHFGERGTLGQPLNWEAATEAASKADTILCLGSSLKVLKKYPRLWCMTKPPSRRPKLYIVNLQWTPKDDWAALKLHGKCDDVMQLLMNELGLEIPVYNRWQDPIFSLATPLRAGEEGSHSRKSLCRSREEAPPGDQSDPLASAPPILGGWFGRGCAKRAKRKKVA
UniProt Q9NRC8: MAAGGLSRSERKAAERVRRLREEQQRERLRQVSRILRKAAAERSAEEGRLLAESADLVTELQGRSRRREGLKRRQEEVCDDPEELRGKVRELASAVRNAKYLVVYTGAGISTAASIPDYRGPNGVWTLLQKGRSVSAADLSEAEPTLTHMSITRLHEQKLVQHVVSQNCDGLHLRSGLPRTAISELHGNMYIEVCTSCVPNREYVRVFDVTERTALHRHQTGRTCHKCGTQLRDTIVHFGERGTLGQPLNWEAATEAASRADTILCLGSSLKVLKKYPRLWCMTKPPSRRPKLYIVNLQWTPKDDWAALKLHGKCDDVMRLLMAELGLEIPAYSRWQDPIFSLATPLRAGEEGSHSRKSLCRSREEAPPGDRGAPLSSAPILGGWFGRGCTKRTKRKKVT

Key:
[1] = target: endogenous SIRT7 (mouse whole brain) (mouse (endogenous in whole brain)) (UniProt Q8BKJ9); assay: co-IP; endogenous proteins; mouse whole-brain lysates (50 mM Tris pH 7.4, 150 mM NaCl, 1% Triton X-100, 0.5% sodium deoxycholate, 0.1% SDS) immunoprecipitated with anti-SIRT7 IgG, immunoblot
[2] = target: SIRT7-V5/His (V5/His-tagged human wildtype sirtuin 7) (human) (UniProt Q9NRC8); assay: co-IP; HEK293 cells co-transfected with tagged FBXO7 and SIRT7-V5/His; lysates in 1% Nonidet P-40 lysis buffer (50 mM Tris pH 7.5, 150 mM NaCl, 10% glycerol) immunoprecipitated with anti-V5 antibody overnight at 4 °C, Protein A Sepharose, immunoblot

B1: endogenous FBXO7 (mouse whole brain) (protein, UniProt Q3U7U3 1-523)
chain: MKLRVRLQKRTQPLEVPESEPTLGQLRAHLSQVLLPTLGFSSDTRFAITLNNKDALTGDEETLASYGIVSGDLICLVLEDDMPAPNLPSSTDTEHSSLQDNDQPSLAATPSQTNIPDEQGTDSSQGQATPFDAWTDDSMEGPSQNVEAESIQDAMSMEEVSGFHPLEPMLCNETEDGQVPHSLETLYQSAGCSNISDALIVLVHLLMLESGYIPQGTETKAVTMPEKWKSSGVYKLQYTHPLCEGGFAVLTCVPLGNLIIINATIKVNGGIKNVKSVQLQPGSYVAAGVEPGESAAKVYKDLKKLSRLFKDQLVYPLLAFTRQVLNLPDVFGLVVLPLELKLRIFRLLDVHSVLALSAVCHDLLIASNDPLLWRCLYLRDFRDGTVRGPDTDWKELYRKKHIQRKEAQRMRHAMFLPSAHPIPFCPIPVYPRAYLPTSLLPPGIIGGEYDERPILPSVGDPVTSLIPRPGELPGQFRPLRPRFDPVDPLPGPHSLLPGRAIPNNRFPFRPGRGRSADSRLPFL
[1]
  binding: binds

B2: FLAG-FBXO7-▵C (FBXO7 lacking the C-terminal region of amino acids 376 to 522) (domain or fragment, UniProt Q9Y3I1 1-375)
chain: MRLRVRLLKRTWPLEVPETEPTLGHLRSHLRQSLLCTWGYSSNTRFTITLNYKDPLTGDEETLASYGIVSGDLICLILQDDIPAPNIPSSTDSEHSSLQNNEQPSLATSSNQTSMQDEQPSDSFQGQAAQSGVWNDDSMLGPSQNFEAESIQDNAHMAEGTGFYPSEPMLCSESVEGQVPHSLETLYQSADCSDANDALIVLIHLLMLESGYIPQGTEAKALSMPEKWKLSGVYKLQYMHPLCEGSSATLTCVPLGNLIVVNATLKINNEIRSVKRLQLLPESFICKEKLGENVANIYKDLQKLSRLFKDQLVYPLLAFTRQALNLPDVFGLVVLPLELKLRIFRLLDVRSVLSLSAVCRDLFTASNDPLLWRFL
[2]
  binding: binds

B3: FLAG-FBXO7-▵N (FBXO7 lacking the N-terminal region of amino acids 1 to 333) (domain or fragment, UniProt Q9Y3I1 334-522)
chain: VLPLELKLRIFRLLDVRSVLSLSAVCRDLFTASNDPLLWRFLYLRDFRDNTVRVQDTDWKELYRKRHIQRKESPKGRFVMLLPSSTHTIPFYPNPLHPRPFPSSRLPPGIIGGEYDQRPTLPYVGDPISSLIPGPGETPSQFPPLRPRFDPVGPLPGPNPILPGRGGPNDRFPFRPSRGRPTDGRLSFM
[2]
  binding: no binding
